One molecule from patent US20110311475A1 (published 2011) can be followed below.

This assay deals with T1, Recombinant Human IL-4 Rα Fc Chimera protein (R&D Systems) (human, UniProt P24394 26-231).
T1 construct: In the assay it was coupled to DyLight 649 conjugated Protein A; also called IL-4Rα subunit; Fc part of the bought chimera not given
T1 sequence (looked up): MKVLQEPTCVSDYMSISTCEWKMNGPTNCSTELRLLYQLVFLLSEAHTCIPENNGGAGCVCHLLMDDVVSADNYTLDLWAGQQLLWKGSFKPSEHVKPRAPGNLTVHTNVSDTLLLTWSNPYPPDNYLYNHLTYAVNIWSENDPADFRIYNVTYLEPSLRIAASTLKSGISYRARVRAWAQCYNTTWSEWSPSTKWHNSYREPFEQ
Description: bead-based flow cytometric immunoassay, receptor-Fc chimera/Protein A-DyLight 649 (FIG. 19D). From the text:
Both goat anti-human IL-21 and rabbit anti-human IL-21 antibodies were initially tested using a Western blot technique to confirm suitable detection of the IL-21 variant proteins with the predicted size. The success of antibody-to-bead conjugation was verified using PE Goat anti-Rabbit IgG Detector (BD Biosciences). To detect the receptor interaction of bead-captured IL-21 variants with the Interleukin-21 receptor proprietary subunit, the Interleukin-4 receptor alpha subunit, the Interleukin-2 receptor alpha or the Interleukin-2 receptor beta, appropriate receptor-Fc-chimera proteins were coupled with a Protein-A-fluorochrome complex suitable for flow cytometric evaluation. […] 50 μl of antibody-coated beads and serial dilutions of IL-21 variant proteins, with final concentrations ranging from 100 pg/ml to 1 μg/ml, were incubated together with the fluorescence conjugated receptor-chimera-Protein-A complexes in excess in 96-well plates for 3 h on a titer plate shaker. […] Bead particles were discriminated on the basis of size and fluorescence (see FIGS. 19A and B) on a BD FACSCanto II system with BD FACSDiva software (BD Biosciences). […]
On the technique in general: In flow cytometry, cells or beads pass a laser one at a time.

B1: "Chim-hIL-21/4" (ligand)
chain: QGQDRHMIRMRQLIDIVDQLKNYVNDLVPEFLPAPEDVETNCEWSAFSCFQKAQLKSANTGNNERIINVSIKKLKRNLWGLAGLNSCPSCDSYEKKPPKEFLERFKSLLQKMIHQHLSSRTHGSEDS
notes: The tag was cleaved off before the assay; also called Chim-hIL-21/4 protein; chimeric IL21-IL4 protein of Bondensgaard et al. (2007)
As for B1, the binding result is on record as “binds”.
